Values quoted from earlier work as cited in patent US4897254A, “Radioactive compositions for the treatment of calcific tumors” (priority 1987, dated 1990).
At least one compound was matched to its structure with a doubt left.

System: bone metastases
Conditions: in vivo; cited from earlier work

## NC(c1ccc(O)c([131I])c1)(P(=O)(O)O)P(=O)(O)O [α-amino-(3-iodo-4-hydroxybenzylidene)diphosphonate]
  treatment of bone metastases: palliative treatment of bone metastases
